These results are taken from the supplement of paper PMC10849652.

Chains of the proteins cited; added tags and fusions are not shown. Lines headed by an entry give the natural chain unless they say otherwise; changes in a name come on top.
UniProt Q9NR56: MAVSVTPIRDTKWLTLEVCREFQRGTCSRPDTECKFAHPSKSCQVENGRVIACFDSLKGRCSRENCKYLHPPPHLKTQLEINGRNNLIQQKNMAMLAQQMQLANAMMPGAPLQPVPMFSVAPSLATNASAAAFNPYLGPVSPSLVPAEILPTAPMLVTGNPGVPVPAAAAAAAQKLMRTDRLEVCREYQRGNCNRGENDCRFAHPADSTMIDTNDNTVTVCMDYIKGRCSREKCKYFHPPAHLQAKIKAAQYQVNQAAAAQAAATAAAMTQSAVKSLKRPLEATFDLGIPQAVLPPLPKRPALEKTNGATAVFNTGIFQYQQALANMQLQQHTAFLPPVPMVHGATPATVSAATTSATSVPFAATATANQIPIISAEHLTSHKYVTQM
UniProt P51608, whole entry, looked up: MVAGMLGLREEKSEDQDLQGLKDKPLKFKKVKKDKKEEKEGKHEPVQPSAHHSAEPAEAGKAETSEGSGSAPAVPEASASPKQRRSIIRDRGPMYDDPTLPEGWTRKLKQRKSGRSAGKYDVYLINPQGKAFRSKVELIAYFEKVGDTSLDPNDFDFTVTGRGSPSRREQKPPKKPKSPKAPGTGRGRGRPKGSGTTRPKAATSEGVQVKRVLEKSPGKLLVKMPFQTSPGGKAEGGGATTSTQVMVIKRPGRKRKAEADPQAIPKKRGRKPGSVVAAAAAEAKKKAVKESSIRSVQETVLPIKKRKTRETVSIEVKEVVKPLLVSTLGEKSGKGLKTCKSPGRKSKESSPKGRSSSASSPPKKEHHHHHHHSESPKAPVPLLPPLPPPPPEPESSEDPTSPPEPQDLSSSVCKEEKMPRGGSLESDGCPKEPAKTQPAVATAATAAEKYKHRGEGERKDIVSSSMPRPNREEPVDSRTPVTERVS
UniProt P49736, whole entry, looked up: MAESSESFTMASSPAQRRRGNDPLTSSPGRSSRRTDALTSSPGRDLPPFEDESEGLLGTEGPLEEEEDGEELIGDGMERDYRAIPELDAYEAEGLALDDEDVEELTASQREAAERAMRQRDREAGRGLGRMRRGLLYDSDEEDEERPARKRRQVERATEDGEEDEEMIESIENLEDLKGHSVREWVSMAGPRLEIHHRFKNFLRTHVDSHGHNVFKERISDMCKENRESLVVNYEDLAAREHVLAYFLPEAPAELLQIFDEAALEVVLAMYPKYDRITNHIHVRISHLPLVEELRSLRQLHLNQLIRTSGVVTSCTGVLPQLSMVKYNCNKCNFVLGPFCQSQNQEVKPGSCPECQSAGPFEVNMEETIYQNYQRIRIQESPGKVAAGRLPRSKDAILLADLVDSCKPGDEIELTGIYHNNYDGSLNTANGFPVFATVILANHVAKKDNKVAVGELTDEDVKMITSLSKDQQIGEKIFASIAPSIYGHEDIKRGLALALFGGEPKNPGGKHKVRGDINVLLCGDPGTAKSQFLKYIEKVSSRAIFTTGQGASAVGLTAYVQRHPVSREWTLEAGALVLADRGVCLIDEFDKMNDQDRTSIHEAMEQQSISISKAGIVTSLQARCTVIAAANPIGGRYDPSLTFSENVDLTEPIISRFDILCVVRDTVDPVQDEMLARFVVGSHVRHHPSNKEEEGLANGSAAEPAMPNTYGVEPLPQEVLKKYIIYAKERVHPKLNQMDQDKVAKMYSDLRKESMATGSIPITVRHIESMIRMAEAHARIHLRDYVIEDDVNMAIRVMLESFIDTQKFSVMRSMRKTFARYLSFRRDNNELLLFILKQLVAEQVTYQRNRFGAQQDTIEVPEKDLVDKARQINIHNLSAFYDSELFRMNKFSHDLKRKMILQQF
UniProt P25205: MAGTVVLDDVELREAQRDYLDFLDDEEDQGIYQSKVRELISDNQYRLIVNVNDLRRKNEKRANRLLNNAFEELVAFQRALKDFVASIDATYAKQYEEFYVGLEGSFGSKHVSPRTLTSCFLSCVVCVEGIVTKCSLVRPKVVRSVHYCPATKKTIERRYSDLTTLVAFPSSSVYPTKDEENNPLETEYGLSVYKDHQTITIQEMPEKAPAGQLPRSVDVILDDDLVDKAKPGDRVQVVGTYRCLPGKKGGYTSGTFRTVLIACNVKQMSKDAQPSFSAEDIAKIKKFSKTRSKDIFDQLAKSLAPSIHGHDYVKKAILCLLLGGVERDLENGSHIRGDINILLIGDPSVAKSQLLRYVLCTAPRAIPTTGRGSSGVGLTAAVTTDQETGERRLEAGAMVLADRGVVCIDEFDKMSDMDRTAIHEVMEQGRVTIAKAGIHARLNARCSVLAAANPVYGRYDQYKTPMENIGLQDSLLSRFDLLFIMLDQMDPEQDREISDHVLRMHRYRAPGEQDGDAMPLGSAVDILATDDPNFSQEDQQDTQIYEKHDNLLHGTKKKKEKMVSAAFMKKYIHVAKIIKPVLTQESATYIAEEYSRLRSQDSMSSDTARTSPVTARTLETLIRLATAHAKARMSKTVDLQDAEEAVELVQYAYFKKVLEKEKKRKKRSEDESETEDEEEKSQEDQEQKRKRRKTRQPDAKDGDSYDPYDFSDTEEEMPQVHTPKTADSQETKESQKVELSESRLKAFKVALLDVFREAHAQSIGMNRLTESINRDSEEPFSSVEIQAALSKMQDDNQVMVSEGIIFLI
UniProt Q8WXB1: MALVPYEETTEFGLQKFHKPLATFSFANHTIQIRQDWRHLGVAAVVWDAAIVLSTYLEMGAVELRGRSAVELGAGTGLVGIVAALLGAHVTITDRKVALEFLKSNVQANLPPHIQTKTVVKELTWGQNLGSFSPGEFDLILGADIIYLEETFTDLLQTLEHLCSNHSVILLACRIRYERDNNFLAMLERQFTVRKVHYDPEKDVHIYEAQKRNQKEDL
UniProt P26572: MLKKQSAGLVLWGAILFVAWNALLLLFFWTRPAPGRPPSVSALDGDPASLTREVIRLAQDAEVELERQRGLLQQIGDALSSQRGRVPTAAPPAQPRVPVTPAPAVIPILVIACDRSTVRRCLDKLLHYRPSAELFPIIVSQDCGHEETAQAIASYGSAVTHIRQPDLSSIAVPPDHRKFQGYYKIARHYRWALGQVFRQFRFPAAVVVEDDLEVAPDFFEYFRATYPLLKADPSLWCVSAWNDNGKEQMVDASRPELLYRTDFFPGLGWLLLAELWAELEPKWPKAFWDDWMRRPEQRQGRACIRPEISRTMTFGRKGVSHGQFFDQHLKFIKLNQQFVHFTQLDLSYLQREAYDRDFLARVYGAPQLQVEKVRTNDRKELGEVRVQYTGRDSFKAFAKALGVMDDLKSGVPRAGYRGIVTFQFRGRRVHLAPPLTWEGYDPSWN
UniProt Q6UB28: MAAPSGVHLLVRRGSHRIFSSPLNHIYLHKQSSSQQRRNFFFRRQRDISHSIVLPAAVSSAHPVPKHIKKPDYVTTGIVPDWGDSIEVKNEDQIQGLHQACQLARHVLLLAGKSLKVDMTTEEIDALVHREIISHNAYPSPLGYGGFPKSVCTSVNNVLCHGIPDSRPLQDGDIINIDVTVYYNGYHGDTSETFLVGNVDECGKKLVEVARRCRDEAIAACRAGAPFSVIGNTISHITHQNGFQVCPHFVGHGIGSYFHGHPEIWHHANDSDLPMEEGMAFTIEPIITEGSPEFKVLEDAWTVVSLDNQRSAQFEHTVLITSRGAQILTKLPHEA
UniProt Q9H944: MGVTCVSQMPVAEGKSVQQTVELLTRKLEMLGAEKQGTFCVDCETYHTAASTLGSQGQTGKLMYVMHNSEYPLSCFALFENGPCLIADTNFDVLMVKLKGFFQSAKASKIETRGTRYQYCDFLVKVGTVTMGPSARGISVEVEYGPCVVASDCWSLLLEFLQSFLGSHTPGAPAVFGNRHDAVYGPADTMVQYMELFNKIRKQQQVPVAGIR
UniProt P33992: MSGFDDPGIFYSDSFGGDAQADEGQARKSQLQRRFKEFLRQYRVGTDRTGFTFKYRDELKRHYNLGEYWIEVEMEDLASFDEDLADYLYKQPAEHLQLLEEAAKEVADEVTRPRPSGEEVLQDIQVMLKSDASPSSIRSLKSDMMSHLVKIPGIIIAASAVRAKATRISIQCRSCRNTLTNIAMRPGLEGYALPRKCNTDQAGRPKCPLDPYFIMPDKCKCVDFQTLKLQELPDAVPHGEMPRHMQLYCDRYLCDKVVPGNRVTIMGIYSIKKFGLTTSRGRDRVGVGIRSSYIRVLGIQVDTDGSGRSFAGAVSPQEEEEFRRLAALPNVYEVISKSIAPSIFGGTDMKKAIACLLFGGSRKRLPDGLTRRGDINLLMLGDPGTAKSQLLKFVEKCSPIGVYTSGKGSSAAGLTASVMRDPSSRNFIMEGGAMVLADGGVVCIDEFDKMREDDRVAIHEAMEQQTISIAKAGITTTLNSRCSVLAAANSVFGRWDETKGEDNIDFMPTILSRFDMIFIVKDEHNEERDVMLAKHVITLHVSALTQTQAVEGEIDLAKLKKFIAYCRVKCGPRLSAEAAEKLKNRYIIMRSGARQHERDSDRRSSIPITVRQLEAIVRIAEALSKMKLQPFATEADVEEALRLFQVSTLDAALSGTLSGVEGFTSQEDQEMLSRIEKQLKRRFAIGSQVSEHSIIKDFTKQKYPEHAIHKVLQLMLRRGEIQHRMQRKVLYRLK
UniProt Q6ZNC8: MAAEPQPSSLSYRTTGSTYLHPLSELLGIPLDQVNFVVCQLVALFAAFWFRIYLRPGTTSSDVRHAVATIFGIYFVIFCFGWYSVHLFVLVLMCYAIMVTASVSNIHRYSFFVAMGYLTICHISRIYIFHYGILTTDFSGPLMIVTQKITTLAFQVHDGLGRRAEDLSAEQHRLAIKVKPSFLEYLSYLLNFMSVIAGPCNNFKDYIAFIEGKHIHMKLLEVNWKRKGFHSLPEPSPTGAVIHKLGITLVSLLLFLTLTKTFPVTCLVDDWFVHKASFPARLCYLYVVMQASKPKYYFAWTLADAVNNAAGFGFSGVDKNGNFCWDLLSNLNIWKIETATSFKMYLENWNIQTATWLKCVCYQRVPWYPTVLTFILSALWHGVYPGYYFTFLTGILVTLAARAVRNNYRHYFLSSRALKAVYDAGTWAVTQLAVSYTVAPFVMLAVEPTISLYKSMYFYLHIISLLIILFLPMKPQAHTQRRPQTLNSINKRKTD
UniProt Q9BUE0: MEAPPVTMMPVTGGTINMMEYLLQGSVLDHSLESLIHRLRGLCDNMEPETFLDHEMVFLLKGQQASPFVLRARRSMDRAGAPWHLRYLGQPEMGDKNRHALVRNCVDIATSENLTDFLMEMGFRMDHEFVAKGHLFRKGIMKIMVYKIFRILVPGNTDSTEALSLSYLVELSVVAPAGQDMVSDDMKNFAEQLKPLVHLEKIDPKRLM
UniProt Q7Z434: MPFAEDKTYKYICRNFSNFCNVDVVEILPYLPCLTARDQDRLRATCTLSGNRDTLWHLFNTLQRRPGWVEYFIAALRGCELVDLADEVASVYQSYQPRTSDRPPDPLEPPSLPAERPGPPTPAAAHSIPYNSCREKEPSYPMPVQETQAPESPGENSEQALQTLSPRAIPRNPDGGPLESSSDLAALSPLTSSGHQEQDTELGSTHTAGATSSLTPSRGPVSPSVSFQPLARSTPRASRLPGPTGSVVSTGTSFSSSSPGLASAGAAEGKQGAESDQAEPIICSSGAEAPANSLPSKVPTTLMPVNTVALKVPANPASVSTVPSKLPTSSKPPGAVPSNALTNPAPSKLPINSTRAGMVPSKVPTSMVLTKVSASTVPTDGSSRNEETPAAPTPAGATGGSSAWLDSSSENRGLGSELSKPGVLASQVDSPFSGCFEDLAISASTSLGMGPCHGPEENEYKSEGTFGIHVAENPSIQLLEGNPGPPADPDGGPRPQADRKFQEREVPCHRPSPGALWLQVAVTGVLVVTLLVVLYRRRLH
UniProt Q8NI22: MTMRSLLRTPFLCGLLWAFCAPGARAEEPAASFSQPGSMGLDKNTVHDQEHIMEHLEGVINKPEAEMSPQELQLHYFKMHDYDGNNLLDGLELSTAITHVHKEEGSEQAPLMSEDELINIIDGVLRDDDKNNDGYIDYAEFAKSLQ
UniProt Q08431: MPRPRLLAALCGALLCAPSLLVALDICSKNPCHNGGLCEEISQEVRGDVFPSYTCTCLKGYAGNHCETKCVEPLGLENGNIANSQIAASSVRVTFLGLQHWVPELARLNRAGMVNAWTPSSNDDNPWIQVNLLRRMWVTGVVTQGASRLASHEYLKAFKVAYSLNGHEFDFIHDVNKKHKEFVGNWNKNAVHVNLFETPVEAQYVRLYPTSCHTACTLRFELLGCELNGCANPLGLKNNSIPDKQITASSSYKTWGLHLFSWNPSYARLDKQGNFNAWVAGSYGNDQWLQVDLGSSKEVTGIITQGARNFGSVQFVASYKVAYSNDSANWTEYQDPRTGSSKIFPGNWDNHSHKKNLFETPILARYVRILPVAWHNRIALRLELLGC
UniProt Q9ULC4: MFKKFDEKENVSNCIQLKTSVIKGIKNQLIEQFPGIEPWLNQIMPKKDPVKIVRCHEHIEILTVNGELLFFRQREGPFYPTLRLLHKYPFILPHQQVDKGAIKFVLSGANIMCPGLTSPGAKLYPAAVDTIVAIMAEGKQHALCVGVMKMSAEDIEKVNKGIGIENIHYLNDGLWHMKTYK

Some of the results follow.

Compound in the assay: C1=CC2=C(C=CC(=C2)/C=C\3/C(=O)NC(=NCC4=CC=CS4)S3)N=C1
Put plainly: log2 fold change, soluble protein after heating vs DMSO (PISA); higher = thermal stabilisation; K562 cells, 10 uM, 30 min; active = over 0.2 and 3.5 SD of the protein, either way, in both replicates (recomputed). In outline: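 K562 cells at 2×10^6 cells/mL were treated for 30 min with 10 μM compound, and aliquots were heated for 3 min over 48°C-58°C before pooling. Extraction used PBS with 0.5% NP-40 at 4°C, and soluble protein was the supernatant after 21,000xg for 90 min, measured by TMTpro 16plex LC-MS/MS with channel sums equalised. Thermal stability values, relative to control samples and from duplicates, are log2 fold changes.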
On to MGAT4B isoform 3 (UniProt Q9UQ53), for which the log2 fold change was inactive: 0.101. The result for MBNL1 (UniProt Q9NR56) reads inactive: -0.078; that for MEF2D (UniProt Q14814), inactive: 0.02; that for MFSD10 (UniProt Q14728), inactive: -0.018. The result for MCAM (UniProt P43121) reads inactive: 0.014. As to METTL1 (UniProt Q9UBP6), the log2 fold change was inactive: 0.063. In the case of MECP2 isoform 2 (UniProt P51608), the log2 fold change is inactive: -0.062. The result for MCM2 (UniProt P49736) reads inactive: 0.021; that for MCM3 isoform 2 (UniProt P25205), inactive: -0.016. The result for METTL21A (UniProt Q8WXB1) reads inactive: -0.053. The result for MDN1 (UniProt Q9NU22) reads inactive: 0.144. Turning to MGAT1 (UniProt P26572), the log2 fold change is inactive: 0.029. The result for METAP1D (UniProt Q6UB28) reads inactive: -0.004; that for MED20 (UniProt Q9H944), inactive: 0.072. The result for METTL14 (UniProt Q9HCE5) reads inactive: -0.018; that for MEAK7 (UniProt Q6P9B6), inactive: 0.069; that for MCRIP1 (UniProt I3L4Q0), inactive: 0.012.

As for MCM5 (UniProt P33992), the log2 fold change was inactive: -0.006. Take MCUB (UniProt Q9NWR8): the log2 fold change is inactive: 0.116.

With MED22 (UniProt Q15528), the log2 fold change was inactive: 0.061. The result for ME2 (UniProt P23368) reads inactive: 0.036. The result for MBOAT1 (UniProt Q6ZNC8) reads inactive: 0.026; that for MDC1 (UniProt Q14676), inactive: 0. As for MCMBP (UniProt Q9BTE3), the log2 fold change is inactive: 0.084. The result for MATR3 (UniProt P43243) reads inactive: -0.26; that for MFN1 (UniProt Q8IWA4), inactive: 0.07; that for MAST4 (UniProt O15021), inactive: 0.032. The result for MED18 (UniProt Q9BUE0) reads inactive: 0.023; that for MAT2A (UniProt P31153), inactive: -0.008. The result for MAVS (UniProt Q7Z434) reads inactive: 0.006; that for MEMO1 (UniProt Q9Y316), inactive: -0.016. Turning to MGST3 (UniProt O14880), the log2 fold change was inactive: 0.006. The result for MED15 (UniProt Q96RN5) reads inactive: 0.055.

For MCFD2 (UniProt Q8NI22), the log2 fold change is inactive: 0.035. In the case of MARS2 (UniProt Q96GW9), the log2 fold change was inactive: 0.

On to MED14 (UniProt O60244), for which the log2 fold change is inactive: -0.013. The result for MFGE8 (UniProt Q08431) reads inactive: -0.059. On to MCTS1 isoform 3 (UniProt Q9ULC4), for which the log2 fold change is inactive: -0.03. With MCM6 (UniProt Q14566), the log2 fold change was inactive: 0.017.
